Measured values as given in patent US20260125440A1 (ELI LILLY AND COMPANY, priority 2019, published 2026).

Test: peptide synthesis
Conditions: whole synthesis, TFA salt

YAibQGT-αMeF(2F)-TSDYSILLDOK(2-[2-(2-amino-ethoxy)-ethoxy]-acetyl-γE-CO—(CH2)18—CO2H)AQ-4Pal-AFIEYLLEGGPSSGEPPPE-NH2.
final HPLC purity: >98.0%
